These are yes or no findings as the source states them, for the method shown. Some binding calls cover weakened binding; strength is not graded here. Blank lines part the entries; values can stand above or below the substance they belong to.
Columns and labels:
CENP-C^2-545 (human) = CENP-C^2-545 (human) (UniProt Q03188); assay: SEC; analytical SEC on Superdex 200 5/150 or Superose 6 5/150; 20 mM HEPES pH 7.5, 300 mM NaCl, 2.5% glycerol, 2 mM TCEP, 4°C; proteins mixed at 6 μM, one hour on ice; fractions by SDS-PAGE and Coomassie; both purified
GST-CENP-L (human) = GST-CENP-L (human) (UniProt Q8N0S6); assay: co-expression and co-purification; GST-CENP-L co-expressed with CENP-N or CENP-N^230-C in Tnao38 insect cells, isolated on GSH-Sepharose and Superdex 200 in 300 mM NaCl
CENP-HIKM complex = CENP-HIKM complex (UniProt Q9H3R5); assay: SEC; analytical SEC on Superdex 200 5/150 or Superose 6 5/150; 20 mM HEPES pH 7.5, 300 mM NaCl, 2.5% glycerol, 2 mM TCEP, 4°C; proteins mixed at 6 μM, one hour on ice; fractions by SDS-PAGE and Coomassie; both purified

Sequences of proteins named here, by UniProt entry; tags and fusion partners are left off. A change or cut given only in a name is not applied to a line headed by its entry. A line that says so, or that is headed by a name, gives the form on record, which may keep a tag or linker. Residues count along the entry.
CENP-C^2-545 (Q03188, residues 2-545): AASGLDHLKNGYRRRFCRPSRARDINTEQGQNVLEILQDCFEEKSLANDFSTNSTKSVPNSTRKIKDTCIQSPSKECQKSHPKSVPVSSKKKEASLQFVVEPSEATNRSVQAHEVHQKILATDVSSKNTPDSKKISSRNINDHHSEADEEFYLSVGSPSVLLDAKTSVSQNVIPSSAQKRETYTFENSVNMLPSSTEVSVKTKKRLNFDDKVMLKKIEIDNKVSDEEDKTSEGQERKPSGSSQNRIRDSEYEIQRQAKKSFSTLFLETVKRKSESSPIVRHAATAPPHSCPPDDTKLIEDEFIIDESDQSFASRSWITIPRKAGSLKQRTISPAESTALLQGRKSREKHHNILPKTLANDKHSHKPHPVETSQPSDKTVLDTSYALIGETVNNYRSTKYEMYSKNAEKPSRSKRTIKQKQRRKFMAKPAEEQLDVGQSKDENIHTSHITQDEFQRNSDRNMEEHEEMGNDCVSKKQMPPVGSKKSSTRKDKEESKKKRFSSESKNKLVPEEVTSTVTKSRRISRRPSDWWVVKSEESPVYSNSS
CENP-C^2-545-5A (Q03188, form named): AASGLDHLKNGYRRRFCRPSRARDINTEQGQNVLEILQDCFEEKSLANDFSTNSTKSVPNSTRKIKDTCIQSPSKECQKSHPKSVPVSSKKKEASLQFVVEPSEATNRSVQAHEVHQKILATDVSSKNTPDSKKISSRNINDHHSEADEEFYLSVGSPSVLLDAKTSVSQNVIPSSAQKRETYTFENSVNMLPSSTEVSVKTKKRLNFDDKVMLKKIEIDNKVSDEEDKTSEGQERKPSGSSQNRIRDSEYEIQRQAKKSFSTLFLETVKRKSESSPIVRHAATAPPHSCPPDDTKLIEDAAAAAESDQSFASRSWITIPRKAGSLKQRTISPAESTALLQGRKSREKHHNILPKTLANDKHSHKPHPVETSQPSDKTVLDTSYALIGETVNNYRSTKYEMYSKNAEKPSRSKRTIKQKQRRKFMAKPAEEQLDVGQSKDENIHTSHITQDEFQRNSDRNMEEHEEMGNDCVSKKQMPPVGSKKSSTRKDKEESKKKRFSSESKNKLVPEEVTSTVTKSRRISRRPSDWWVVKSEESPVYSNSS
UniProt Q8N0S6: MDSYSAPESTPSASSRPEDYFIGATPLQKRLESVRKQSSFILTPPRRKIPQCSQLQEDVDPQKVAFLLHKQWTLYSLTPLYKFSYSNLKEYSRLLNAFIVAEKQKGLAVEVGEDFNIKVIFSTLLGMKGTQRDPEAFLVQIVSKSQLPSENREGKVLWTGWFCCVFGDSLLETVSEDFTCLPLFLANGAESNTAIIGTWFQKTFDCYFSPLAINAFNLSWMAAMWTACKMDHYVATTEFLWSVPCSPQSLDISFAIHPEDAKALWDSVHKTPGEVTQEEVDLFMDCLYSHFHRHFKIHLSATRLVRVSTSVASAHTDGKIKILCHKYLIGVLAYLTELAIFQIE
UniProt Q9H3R5: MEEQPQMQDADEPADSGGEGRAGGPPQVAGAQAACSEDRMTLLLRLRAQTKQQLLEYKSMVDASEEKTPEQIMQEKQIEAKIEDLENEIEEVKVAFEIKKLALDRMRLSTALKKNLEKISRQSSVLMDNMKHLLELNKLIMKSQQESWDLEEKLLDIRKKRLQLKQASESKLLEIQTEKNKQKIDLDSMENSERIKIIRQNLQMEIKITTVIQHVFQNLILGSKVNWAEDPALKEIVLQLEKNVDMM
UniProt Q96H22, residues 230-339: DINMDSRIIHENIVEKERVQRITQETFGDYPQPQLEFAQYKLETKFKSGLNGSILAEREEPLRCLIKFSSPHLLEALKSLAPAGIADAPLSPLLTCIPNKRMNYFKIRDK

binding (CENP-C^2-545 (human)): no binding (tested: 6 μM)
Substance: CENP-L (from UniProt Q8N0S6 1-344)

binding (GST-CENP-L (human)): binds
Substance: CENP-N^230-C (from UniProt Q96H22 230-339) (domain or fragment)

binding (CENP-HIKM complex): binds
Substance: CENP-C^2-545-5A (from UniProt Q03188 2-545) (domain or fragment)
